Data taken from article PMC6294520.

Sequences of proteins named here, by UniProt entry; tags and fusion partners are left off.
UniProt Q9Y4F3: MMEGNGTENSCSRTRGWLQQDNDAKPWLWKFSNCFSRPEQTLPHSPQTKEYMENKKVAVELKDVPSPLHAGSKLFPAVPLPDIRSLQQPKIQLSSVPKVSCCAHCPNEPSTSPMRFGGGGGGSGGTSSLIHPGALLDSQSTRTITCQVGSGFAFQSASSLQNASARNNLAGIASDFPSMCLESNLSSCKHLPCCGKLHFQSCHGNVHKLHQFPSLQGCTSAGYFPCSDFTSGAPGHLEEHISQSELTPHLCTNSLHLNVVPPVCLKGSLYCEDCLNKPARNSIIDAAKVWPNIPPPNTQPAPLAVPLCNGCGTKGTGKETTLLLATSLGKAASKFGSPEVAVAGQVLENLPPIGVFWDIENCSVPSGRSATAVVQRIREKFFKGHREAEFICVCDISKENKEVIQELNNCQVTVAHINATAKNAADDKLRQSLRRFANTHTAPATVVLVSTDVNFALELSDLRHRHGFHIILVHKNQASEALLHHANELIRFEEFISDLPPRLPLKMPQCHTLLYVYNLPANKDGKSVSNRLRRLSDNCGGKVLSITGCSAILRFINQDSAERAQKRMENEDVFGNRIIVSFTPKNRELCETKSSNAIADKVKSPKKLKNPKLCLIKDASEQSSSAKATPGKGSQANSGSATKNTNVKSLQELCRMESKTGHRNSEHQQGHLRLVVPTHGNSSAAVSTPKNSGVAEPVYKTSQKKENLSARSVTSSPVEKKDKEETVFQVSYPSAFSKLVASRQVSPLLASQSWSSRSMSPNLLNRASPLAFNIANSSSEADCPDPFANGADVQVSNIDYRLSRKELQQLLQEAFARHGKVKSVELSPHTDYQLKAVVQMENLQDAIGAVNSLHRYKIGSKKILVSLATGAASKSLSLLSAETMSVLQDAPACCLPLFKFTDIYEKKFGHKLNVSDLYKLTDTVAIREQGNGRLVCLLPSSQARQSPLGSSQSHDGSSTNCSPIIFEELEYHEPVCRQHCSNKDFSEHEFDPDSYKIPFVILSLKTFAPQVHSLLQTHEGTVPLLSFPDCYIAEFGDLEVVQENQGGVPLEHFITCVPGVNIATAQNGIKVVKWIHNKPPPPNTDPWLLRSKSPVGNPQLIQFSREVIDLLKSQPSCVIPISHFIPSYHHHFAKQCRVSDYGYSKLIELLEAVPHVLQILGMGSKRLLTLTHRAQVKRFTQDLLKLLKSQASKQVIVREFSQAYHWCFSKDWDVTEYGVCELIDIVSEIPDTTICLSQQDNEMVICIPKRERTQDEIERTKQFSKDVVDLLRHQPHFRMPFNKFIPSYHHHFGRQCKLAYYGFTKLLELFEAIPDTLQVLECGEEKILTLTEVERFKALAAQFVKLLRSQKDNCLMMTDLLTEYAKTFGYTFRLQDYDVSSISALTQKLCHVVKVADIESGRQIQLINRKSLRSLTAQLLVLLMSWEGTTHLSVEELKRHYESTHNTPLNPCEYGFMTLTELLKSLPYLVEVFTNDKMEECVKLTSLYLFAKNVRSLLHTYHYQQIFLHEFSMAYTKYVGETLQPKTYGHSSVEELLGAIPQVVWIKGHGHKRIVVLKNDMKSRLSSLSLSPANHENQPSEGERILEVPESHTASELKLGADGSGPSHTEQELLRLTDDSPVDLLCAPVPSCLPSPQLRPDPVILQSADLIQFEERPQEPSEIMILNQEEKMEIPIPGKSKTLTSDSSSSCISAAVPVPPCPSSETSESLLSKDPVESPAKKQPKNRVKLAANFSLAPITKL
UniProt A5YKK6: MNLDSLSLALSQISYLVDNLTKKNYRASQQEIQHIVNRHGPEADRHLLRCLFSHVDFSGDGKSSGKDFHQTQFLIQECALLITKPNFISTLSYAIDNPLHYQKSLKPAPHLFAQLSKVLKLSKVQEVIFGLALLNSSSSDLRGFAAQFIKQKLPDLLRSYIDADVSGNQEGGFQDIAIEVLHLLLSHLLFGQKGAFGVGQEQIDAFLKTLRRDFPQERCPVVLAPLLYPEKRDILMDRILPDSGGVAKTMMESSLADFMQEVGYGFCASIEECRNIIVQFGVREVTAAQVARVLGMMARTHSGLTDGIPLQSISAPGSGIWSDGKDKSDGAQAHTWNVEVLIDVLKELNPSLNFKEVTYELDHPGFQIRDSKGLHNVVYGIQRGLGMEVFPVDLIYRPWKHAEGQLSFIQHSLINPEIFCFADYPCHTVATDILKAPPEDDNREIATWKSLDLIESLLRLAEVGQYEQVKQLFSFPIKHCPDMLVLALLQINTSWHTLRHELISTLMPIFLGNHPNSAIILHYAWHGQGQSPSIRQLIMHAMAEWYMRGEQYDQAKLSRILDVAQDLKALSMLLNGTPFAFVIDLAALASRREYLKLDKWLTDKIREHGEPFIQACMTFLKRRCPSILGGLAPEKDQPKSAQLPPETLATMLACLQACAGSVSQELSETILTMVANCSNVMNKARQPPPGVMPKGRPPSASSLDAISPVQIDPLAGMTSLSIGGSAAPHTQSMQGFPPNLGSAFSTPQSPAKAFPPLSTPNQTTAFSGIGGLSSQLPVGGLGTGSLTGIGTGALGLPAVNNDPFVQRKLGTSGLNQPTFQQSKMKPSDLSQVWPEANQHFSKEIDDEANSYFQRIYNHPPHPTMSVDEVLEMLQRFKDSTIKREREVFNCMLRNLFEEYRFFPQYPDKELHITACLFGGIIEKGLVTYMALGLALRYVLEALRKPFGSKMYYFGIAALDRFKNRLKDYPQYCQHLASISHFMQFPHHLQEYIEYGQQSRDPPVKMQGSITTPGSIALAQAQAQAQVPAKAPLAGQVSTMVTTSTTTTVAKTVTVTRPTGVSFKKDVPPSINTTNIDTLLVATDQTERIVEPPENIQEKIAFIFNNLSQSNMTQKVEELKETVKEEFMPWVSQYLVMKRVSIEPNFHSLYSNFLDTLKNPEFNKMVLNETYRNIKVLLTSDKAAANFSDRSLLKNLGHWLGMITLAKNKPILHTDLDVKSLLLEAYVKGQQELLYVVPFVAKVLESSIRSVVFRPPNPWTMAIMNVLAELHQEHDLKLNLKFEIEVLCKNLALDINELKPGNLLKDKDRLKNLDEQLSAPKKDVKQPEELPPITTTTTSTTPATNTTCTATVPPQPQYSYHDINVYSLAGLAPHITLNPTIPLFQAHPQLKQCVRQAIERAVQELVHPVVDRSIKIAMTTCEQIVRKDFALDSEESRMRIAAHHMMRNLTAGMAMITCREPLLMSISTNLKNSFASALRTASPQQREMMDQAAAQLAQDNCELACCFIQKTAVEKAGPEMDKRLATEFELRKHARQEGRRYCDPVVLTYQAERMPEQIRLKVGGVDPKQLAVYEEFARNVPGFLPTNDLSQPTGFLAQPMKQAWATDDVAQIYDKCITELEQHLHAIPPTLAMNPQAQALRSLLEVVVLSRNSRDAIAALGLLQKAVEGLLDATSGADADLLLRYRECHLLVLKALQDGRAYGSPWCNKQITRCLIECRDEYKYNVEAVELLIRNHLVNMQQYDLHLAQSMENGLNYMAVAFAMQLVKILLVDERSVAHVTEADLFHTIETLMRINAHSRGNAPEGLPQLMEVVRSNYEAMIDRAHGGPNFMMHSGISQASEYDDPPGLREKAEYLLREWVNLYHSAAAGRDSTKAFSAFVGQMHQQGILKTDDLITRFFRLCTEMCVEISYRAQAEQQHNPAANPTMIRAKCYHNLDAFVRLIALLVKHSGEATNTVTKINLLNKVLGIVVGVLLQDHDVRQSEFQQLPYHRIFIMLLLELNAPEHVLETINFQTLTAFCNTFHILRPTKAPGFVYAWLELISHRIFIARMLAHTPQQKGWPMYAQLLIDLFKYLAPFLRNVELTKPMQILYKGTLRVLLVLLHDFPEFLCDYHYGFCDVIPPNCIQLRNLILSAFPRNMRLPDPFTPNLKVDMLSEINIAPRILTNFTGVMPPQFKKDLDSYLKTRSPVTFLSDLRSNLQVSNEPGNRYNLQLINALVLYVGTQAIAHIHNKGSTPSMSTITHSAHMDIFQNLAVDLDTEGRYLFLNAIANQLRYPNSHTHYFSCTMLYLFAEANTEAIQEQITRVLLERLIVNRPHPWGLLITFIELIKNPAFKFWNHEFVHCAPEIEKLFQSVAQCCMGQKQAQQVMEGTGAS
UniProt Q8IZH2: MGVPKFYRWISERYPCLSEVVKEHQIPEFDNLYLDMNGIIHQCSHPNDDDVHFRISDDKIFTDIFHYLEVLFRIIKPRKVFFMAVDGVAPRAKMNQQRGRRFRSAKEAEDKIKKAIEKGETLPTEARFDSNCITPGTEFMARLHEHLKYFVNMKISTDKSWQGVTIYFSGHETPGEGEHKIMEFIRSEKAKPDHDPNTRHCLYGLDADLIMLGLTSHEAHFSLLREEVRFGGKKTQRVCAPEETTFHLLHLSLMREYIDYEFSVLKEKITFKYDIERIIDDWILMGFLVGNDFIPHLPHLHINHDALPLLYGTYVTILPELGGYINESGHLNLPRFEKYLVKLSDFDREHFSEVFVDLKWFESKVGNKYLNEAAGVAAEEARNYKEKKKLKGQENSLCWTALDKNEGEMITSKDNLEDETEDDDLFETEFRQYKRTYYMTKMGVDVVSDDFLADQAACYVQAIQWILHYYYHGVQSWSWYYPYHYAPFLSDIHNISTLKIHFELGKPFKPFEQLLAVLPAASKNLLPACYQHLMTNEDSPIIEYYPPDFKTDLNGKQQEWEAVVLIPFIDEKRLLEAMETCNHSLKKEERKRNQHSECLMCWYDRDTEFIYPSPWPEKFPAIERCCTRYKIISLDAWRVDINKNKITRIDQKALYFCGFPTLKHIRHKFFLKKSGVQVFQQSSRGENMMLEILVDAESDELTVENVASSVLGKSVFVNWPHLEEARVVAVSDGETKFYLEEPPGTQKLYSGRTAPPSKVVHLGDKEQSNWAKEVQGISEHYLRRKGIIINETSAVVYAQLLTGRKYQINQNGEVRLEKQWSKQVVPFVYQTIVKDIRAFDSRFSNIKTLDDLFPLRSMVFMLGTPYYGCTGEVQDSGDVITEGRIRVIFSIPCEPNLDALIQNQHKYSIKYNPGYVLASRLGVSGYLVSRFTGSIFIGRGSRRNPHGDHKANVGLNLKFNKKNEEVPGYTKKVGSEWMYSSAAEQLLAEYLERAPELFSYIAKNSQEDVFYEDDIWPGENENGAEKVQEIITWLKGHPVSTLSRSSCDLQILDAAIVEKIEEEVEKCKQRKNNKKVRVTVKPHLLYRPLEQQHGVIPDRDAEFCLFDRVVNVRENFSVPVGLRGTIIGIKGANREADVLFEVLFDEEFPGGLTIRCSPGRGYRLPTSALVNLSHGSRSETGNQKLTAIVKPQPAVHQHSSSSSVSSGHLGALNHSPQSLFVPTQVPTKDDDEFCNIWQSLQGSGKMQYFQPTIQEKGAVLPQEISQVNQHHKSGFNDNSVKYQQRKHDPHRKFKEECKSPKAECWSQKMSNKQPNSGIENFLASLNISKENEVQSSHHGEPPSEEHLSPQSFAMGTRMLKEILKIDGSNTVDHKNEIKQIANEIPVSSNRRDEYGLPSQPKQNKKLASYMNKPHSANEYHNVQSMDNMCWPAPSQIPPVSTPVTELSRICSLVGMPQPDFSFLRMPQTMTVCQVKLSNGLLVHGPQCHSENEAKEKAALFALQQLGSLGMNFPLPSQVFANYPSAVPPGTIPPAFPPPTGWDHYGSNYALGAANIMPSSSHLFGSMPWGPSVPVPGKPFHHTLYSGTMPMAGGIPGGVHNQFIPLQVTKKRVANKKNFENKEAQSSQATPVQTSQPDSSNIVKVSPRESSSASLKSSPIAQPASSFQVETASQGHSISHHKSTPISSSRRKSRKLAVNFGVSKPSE
UniProt Q96F86: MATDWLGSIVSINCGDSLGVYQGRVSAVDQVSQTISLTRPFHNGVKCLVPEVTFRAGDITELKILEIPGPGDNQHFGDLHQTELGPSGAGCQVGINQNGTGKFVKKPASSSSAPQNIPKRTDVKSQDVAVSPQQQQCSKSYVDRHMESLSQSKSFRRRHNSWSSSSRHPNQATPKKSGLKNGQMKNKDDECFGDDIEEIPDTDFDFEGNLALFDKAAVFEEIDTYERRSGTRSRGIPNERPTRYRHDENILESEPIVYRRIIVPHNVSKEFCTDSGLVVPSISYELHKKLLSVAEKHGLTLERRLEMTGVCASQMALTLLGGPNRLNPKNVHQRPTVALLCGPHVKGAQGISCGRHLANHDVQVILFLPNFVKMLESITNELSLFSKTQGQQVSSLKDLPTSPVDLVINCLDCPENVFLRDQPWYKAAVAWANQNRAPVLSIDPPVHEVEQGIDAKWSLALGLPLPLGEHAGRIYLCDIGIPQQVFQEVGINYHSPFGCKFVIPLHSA

How the values were obtained:
[1] = target: Full-length FLAG-BirA*-MARF1 (human) (UniProt Q9Y4F3); assay: proximity labelling; BioID: HEK293 cells expressing FLAG-BirA*-MARF1 incubated with biotin, lysed under harsh conditions; streptavidin agarose pull-down from benzonase-treated lysates; western blot of endogenous proteins
[2] = target: FLAG-tagged MARF1 (Meiosis arrest female 1) (human) (UniProt Q9Y4F3); assay: affinity purification with mass spectrometry; FLAG-MARF1 induced in stable HEK293 cells; benzonase-treated lysate (50 mM HEPES-NaOH pH 8.0, 100 mM KCl, 2 mM EDTA, 0.1% NP40, 10% glycerol); anti-FLAG M2 magnetic beads, 4°C; MS/MS, SAINT scoring of two replicates against negative controls

Row | binding [1] | binding [2] | Molecule
1 | no binding | – | CNOT1, the central subunit of the CCR4-NOT deadenylase complex (from UniProt A5YKK6 1-2376)
2 | binds | binds | 5′-3′ exonuclease XRN1 (from UniProt Q8IZH2 1-1706)
3 | – | binds | EDC3 (enhancer of mRNA decapping) (from UniProt Q96F86 1-508)
4 | binds | binds | DCP2 decapping enzyme (from UniProt Q8IU60 1-420)
5 | binds | binds | EDC4 (enhancer of mRNA decapping) (protein, UniProt Q6P2E9 1-1401) MASCASIDIEDATQHLRDILKLDRPAGGPSAESPRPSSAYNGDLNGLLVPDPLCSGDSTSANKTGLRTMPPINLQEKQVICLSGDDSSTCIGILAKEVEIVASSDSSISSKARGSNKVKIQPVAKYDWEQKYYYGNLIAVSNSFLAYAIRAANNGSAMVRVISVSTSERTLLKGFTGSVADLAFAHLNSPQLACLDEAGNLFVWRLALVNGKIQEEILVHIRQPEGTPLNHFRRIIWCPFIPEESEDCCEESSPTVALLHEDRAEVWDLDMLRSSHSTWPVDVSQIKQGFIVVKGHSTCLSEGALSPDGTVLATASHDGYVKFWQIYIEGQDEPRCLHEWKPHDGRPLSCLLFCDNHKKQDPDVPFWRFLITGADQNRELKMWCTVSWTCLQTIRFSPDIFSSVSVPPSLKVCLDLSAEYLILSDVQRKVLYVMELLQNQEEGHACFSSISEFLLTHPVLSFGIQVVSRCRLRHTEVLPAEEENDSLGADGTHGAGAMESAAGVLIKLFCVHTKALQDVQIRFQPQLNPDVVAPLPTHTAHEDFTFGESRPELGSEGLGSAAHGSQPDLRRIVELPAPADFLSLSSETKPKLMTPDAFMTPSASLQQITASPSSSSSGSSSSSSSSSSSLTAVSAMSSTSAVDPSLTRPPEELTLSPKLQLDGSLTMSSSGSLQASPRGLLPGLLPAPADKLTPKGPGQVPTATSALSLELQEVEPLGLPQASPSRTRSPDVISSASTALSQDIPEIASEALSRGFGSSAPEGLEPDSMASAASALHLLSPRPRPGPELGPQLGLDGGPGDGDRHNTPSLLEAALTQEASTPDSQVWPTAPDITRETCSTLAESPRNGLQEKHKSLAFHRPPYHLLQQRDSQDASAEQSDHDDEVASLASASGGFGTKVPAPRLPAKDWKTKGSPRTSPKLKRKSKKDDGDAAMGSRLTEHQVAEPPEDWPALIWQQQRELAELRHSQEELLQRLCTQLEGLQSTVTGHVERALETRHEQEQRRLERALAEGQQRGGQLQEQLTQQLSQALSSAVAGRLERSIRDEIKKTVPPCVSRSLEPMAGQLSNSVATKLTAVEGSMKENISKLLKSKNLTDAIARAAADTLQGPMQAAYREAFQSVVLPAFEKSCQAMFQQINDSFRLGTQEYLQQLESHMKSRKAREQEAREPVLAQLRGLVSTLQSATEQMAATVAGSVRAEVQHQLHVAVGSLQESILAQVQRIVKGEVSVALKEQQAAVTSSIMQAMRSAAGTPVPSAHLDCQAQQAHILQLLQQGHLNQAFQQALTAADLNLVLYVCETVDPAQVFGQPPCPLSQPVLLSLIQQLASDLGTRTDLKLSYLEEAVMHLDHSDPITRDHMGSVMAQVRQKLFQFLQAEPHNSLGKAARRLSLMLHGLVTPSLP
6 | binds | binds | PATL1 (protein, UniProt Q86TB9 1-770) MFRYESLEDCPLDEDEDAFQGLGEEDEEIDQFNDDTFGSGAVDDDWQEAHERLAELEEKLPVAVNEQTGNGERDEMDLLGDHEENLAERLSKMVIENELEDPAIMRAVQTRPVLQPQPGSLNSSIWDGSEVLRRIRGPLLAQEMPTVSVLEYALPQRPPQGPEDDRDLSERALPRRSTSPIIGSPPVRAVPIGTPPKQMAVPSFTQQILCPKPVHVRPPMPPRYPAPYGERMSPNQLCSVPNSSLLGHPFPPSVPPVLSPLQRAQLLGGAQLQPGRMSPSQFARVPGFVGSPLAAMNPKLLQGRVGQMLPPAPGFRAFFSAPPSATPPPQQHPPGPGPHLQNLRSQAPMFRPDTTHLHPQHRRLLHQRQQQNRSQHRNLNGAGDRGSHRSSHQDHLRKDPYANLMLQREKDWVSKIQMMQLQSTDPYLDDFYYQNYFEKLEKLSAAEEIQGDGPKKERTKLITPQVAKLEHAYKPVQFEGSLGKLTVSSVNNPRKMIDAVVTSRSEDDETKEKQVRDKRRKTLVIIEKTYSLLLDVEDYERRYLLSLEEERPALMDDRKHKICSMYDNLRGKLPGQERPSDDHFVQIMCIRKGKRMVARILPFLSTEQAADILMTTARNLPFLIKKDAQDEVLPCLLSPFSLLLYHLPSVSITSLLRQLMNLPQSAATPALSNPHLTAVLQNKFGLSLLLILLSRGEDLQSSDPATESTQNNQWTEVMFMATRELLRIPQAALAKPISIPTNLVSLFSRYVDRQKLNLLETKLQLVQGIR
7 | – | binds | LSM1 (protein, UniProt O15116 1-133) MNYMPGTASLIEDIDKKHLVLLRDGRTLIGFLRSIDQFANLVLHQTVERIHVGKKYGDIPRGIFVVRGENVVLLGEIDLEKESDTPLQQVSIEEILEEQRVEQQTKLEAEKLKVQALKDRGLSIPRADTLDEY
8 | – | binds | LSM2 (protein, UniProt Q9Y333 1-95) MLFYSFFKSLVGKDVVVELKNDLSICGTLHSVDQYLNIKLTDISVTDPEKYPHMLSVKNCFIRGSVVRYVQLPADEVDTQLLQDAARKEALQQKQ
9 | – | no binding | PAN2 (subunit of the PAN2-PAN3 deadenylase complex) (protein, UniProt Q504Q3 1-1202) MNFEGLDPGLAEYAPAMHSALDPVLDAHLNPSLLQNVELDPEGVALEALPVQESVHIMEGVYSELHSVVAEVGVPVSVSHFDLHEEMLWVGSHGGHATSFFGPALERYSSFQVNGSDDIRQIQSLENGILFLTKNNLKYMARGGLIIFDYLLDENEDMHSLLLTDSSTLLVGGLQNHIIEIDLNTVQETQKYAVETPGVTIMRQTNRFFFCGHTSGKVSLRDLRTFKVEHEFDAFSGSLSDFDVHGNLLAACGFSSRLTGLACDRFLKVYDLRMMRAITPLQVHVDPAFLRFIPTYTSRLAIISQSGQCQFCEPTGLANPADIFHVNPVGPLLMTFDVSASKQALAFGDSEGCVHLWTDSPEPSFNPYSRETEFALPCLVDSLPPLDWSQDLLPLSLIPVPLTTDTLLSDWPAANSAPAPRRAPPVDAEILRTMKKVGFIGYAPNPRTRLRNQIPYRLKESDSEFDSFSQVTESPVGREEEPHLHMVSKKYRKVTIKYSKLGLEDFDFKHYNKTLFAGLEPHIPNAYCNCMIQVLYFLEPVRCLIQNHLCQKEFCLACELGFLFHMLDLSRGDPCQGNNFLRAFRTIPEASALGLILADSDEASGKGNLARLIQRWNRFILTQLHQDMQELEIPQAYRGAGGSSFCSSGDSVIGQLFSCEMENCSLCRCGSETVRASSTLLFTLSYPDGSKSDKTGKNYDFAQVLKRSICLDQNTQAWCDTCEKYQPTIQTRNIRHLPDILVINCEVNSSKEADFWRMQAEVAFKMAVKKHGGEISKNKEFALADWKELGSPEGVLVCPSIEELKNVWLPFSIRMKMTKNKGLDVCNWTDGDEMQWGPARAEEEHGVYVYDLMATVVHILDSRTGGSLVAHIKVGETYHQRKEGVTHQQWYLFNDFLIEPIDKHEAVQFDMNWKVPAILYYVKRNLNSRYNLNIKNPIEASVLLAEASLARKQRKTHTTFIPLMLNEMPQIGDLVGLDAEFVTLNEEEAELRSDGTKSTIKPSQMSVARITCVRGQGPNEGIPFIDDYISTQEQVVDYLTQYSGIKPGDLDAKISSKHLTTLKSTYLKLRFLIDIGVKFVGHGLQKDFRVINLMVPKDQVLDTVYLFHMPRKRMISLRFLAWYFLDLKIQGETHDSIEDARTALQLYRKYLELSKNGTEPESFHKVLKGLYEKGRKMDWKVPEPEGQTSPKNAAVFSSVLAL

No constants are given. Whether binding was seen depends on the method and setting. Binding seen in cells or lysates may run through a third protein. Here binding means that the protein was enriched with, or labelled near, the bait; the list need not be complete. A no says only that the protein was not detected with the bait.
